Measurements reported in publication PMC8070143.
No constants are given. Whether binding was seen depends on the method and setting. In cells and extracts the contact can be indirect. Some binding calls cover weakened binding; strength is not graded here.

Target: voltage-dependent anion channel 1 (VDAC1) (human (endogenous in A2780)), P21796
Assay: co-IP; A2780 cells transfected with wt-p62 or ΔUBA-p62, cisplatin 5 μg/mL 6 h; NP40 lysis buffer; co-IP of HK2 with VDAC1, the precipitating antibody is not told for this panel
Details: remark: other sources report otherwise

binding: binds
B1: hexokinase 2 (HK2), P52789 1-917 (enzyme)
chain: MIASHLLAYFFTELNHDQVQKVDQYLYHMRLSDETLLEISKRFRKEMEKGLGATTHPTAAVKMLPTFVRSTPDGTEHGEFLALDLGGTNFRVLWVKVTDNGLQKVEMENQIYAIPEDIMRGSGTQLFDHIAECLANFMDKLQIKDKKLPLGFTFSFPCHQTKLDESFLVSWTKGFKSSGVEGRDVVALIRKAIQRRGDFDIDIVAVVNDTVGTMMTCGYDDHNCEIGLIVGTGSNACYMEEMRHIDMVEGDEGRMCINMEWGAFGDDGSLNDIRTEFDQEIDMGSLNPGKQLFEKMISGMYMGELVRLILVKMAKEELLFGGKLSPELLNTGRFETKDISDIEGEKDGIRKAREVLMRLGLDPTQEDCVATHRICQIVSTRSASLCAATLAAVLQRIKENKGEERLRSTIGVDGSVYKKHPHFAKRLHKTVRRLVPGCDVRFLRSEDGSGKGAAMVTAVAYRLADQHRARQKTLEHLQLSHDQLLEVKRRMKVEMERGLSKETHASAPVKMLPTYVCATPDGTEKGDFLALDLGGTNFRVLLVRVRNGKWGGVEMHNKIYAIPQEVMHGTGDELFDHIVQCIADFLEYMGMKGVSLPLGFTFSFPCQQNSLDESILLKWTKGFKASGCEGEDVVTLLKEAIHRREEFDLDVVAVVNDTVGTMMTCGFEDPHCEVGLIVGTGSNACYMEEMRNVELVEGEEGRMCVNMEWGAFGDNGCLDDFRTEFDVAVDELSLNPGKQRFEKMISGMYLGEIVRNILIDFTKRGLLFRGRISERLKTRGIFETKFLSQIESDCLALLQVRAILQHLGLESTCDDSIIVKEVCTVVARRAAQLCGAGMAAVVDRIRENRGLDALKVTVGVDGTLYKLHPHFAKVMHETVKDLAPKCDVSFLQSEDGSGKGAALITAVACRIREAGQR
